Results taken from US20240173285A1, “COMPOSITIONS COMPRISING EPA AND METHODS OF USING THE SAME FOR TREATING AND/OR PREVENTING ENDOTHELIAL DYSFUNCTION IN A SUBJECT” (Amarin Pharmaceuticals Ireland Limited, priority 2021, published 2024).
At least one structure is not confirmed: it was looked up by name or label, or the drawing left a doubt.

Assays:
[1] = test system: human umbilical vein endothelial cells (HUVEC); settings: HUVEC exposed to EPA; cited from earlier work
Human PECs = test: Protein expression (LC/MS proteomics, ICAM-1 immunochemistry) in PECs pretreated with EPA then challenged with IL-6; format: cell-based; settings: EPA 40 μM 2 hours, then IL-6 12 ng/ml 24 hours

For `CC/C=C\C/C=C\C/C=C\C/C=C\C/C=C\CCCC(=O)O` [EPA, eicosapentaenoic acid], the “effect on anti-oxidant response element Nrf2 and in turn heme oxygenase” value [1] is listed as “stimulates”, the “ICAM-1 expression compared to IL-6” value (Human PECs) is listed as “significantly downregulated” and the “angiotensin converting enzyme (ACE) expression compared to IL-6” value (Human PECs) is listed as “significantly downregulated”.
